The record followed here is patent US20120149591A1.

By UniProt entry, the sequences of proteins in these tests, tags left out. Residues count along the entry.
UniProt P01012, residues 2-386: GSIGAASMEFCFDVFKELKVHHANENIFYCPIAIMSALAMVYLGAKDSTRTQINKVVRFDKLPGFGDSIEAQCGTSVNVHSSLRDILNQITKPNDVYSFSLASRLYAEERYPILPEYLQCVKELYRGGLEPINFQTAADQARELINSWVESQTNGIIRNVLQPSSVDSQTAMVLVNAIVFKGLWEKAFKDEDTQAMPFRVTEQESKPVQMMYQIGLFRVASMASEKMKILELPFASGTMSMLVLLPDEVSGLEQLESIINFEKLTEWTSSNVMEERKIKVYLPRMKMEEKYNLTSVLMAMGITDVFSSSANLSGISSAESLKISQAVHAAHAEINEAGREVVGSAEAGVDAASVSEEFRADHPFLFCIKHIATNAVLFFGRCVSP

No constants are given. Whether binding was seen depends on the method and setting. Some results given as binding are weak or reduced against the parent protein; the word gives no strength.

The target in this assay is ovalbumin (UniProt P01012). Description: phage ELISA on coated ovalbumin, anti-M13-HRP detection. In general terms: An ELISA detects its analyte on a solid surface through an enzyme-linked reagent.

For VSFMLLGPHRHR (peptide, not shown: large carriers) [C4], the binding entry is reported as “binds”.
The result for LVLHWLSLGSR (peptide, not shown: large carriers) [C6] reads “binds”; that for SNQVVLILHLRP (peptide, not shown: large carriers) [C8], “binds”; that for ANLWRIVLHGWW (peptide, not shown: large carriers) [C1], “binds”.
